Test results reported in publication PMC12205872, “ESSENTIAL MEIOTIC ENDONUCLEASE 1 is required for chloroplast development and DNA repair in rice”.
Changes are numbered by the printed parent chain. The comparison behind a weaker result is the experiment's own reference, which may not be listed here. Where a protein sequence is shown, tags need not be part of it.

Key:
Assay in all cases: EMSA
[1] = molecular target: T1, OsEME1 E490A (Oryza sativa L. japonica cv. KY131) (UniProt Q0J9J6); settings: shift dramatically reduced, cleavage reduced; EMSA/cleavage: 25 mM Tris-HCl pH 7.5, 1 mM MgCl2, 1 mM DTT, 5 mM ATP, 2.5 uM Cy5 substrate, 20 uM protein, 30 C; recombinant protein; residues 1-650; protein details: MBP cleaved by TEVp
T1 sequence (looked up): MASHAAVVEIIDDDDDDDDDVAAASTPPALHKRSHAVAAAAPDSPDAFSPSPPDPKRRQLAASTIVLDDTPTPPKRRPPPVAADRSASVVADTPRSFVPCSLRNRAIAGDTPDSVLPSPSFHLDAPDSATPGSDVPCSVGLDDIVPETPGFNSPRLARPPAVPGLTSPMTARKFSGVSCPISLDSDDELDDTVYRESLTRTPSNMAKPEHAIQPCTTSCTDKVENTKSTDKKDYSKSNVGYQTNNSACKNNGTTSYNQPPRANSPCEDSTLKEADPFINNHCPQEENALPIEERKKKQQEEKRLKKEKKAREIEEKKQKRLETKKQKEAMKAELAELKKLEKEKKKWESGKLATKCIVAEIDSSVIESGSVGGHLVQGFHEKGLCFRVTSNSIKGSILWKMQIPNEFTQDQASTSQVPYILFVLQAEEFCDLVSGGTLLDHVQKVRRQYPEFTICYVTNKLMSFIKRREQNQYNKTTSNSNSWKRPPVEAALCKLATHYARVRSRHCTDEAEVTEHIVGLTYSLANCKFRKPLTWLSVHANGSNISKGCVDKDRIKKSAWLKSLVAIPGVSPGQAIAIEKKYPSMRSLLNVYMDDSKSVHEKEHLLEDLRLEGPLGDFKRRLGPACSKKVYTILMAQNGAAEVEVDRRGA

[2] = molecular target: T2, OsEME1 L439V (Oryza sativa L. japonica cv. KY131) (UniProt Q0J9J6); settings: shift dramatically reduced, cleavage reduced; EMSA/cleavage: 25 mM Tris-HCl pH 7.5, 1 mM MgCl2, 1 mM DTT, 5 mM ATP, 2.5 uM Cy5 substrate, 20 uM protein, 30 C; recombinant protein; residues 1-650; protein details: MBP cleaved by TEVp
T2 sequence (looked up): T1 sequence (looked up) with L439V, A490E

[3] = molecular target: T3, OsEME1 K494E (Oryza sativa L. japonica cv. KY131) (UniProt Q0J9J6); settings: shift dramatically reduced, cleavage reduced; EMSA/cleavage: 25 mM Tris-HCl pH 7.5, 1 mM MgCl2, 1 mM DTT, 5 mM ATP, 2.5 uM Cy5 substrate, 20 uM protein, 30 C; recombinant protein; residues 1-650; protein details: MBP cleaved by TEVp
T3 sequence (looked up): T1 sequence (looked up) with A490E, K494E

[4] = molecular target: T4, OsEME1 P487A (Oryza sativa L. japonica cv. KY131) (UniProt Q0J9J6); settings: shift decreased, cleavage increased; EMSA/cleavage: 25 mM Tris-HCl pH 7.5, 1 mM MgCl2, 1 mM DTT, 5 mM ATP, 2.5 uM Cy5 substrate, 20 uM protein, 30 C; recombinant protein; residues 1-650; protein details: MBP cleaved by TEVp
T4 sequence (looked up): T1 sequence (looked up) with P487A, A490E

Measured: binding result

GACGCTGCCGAATTCTGGCTTGCTAGGACATCTTTGCCCACGTTGACCCG / GCGATAGTCTCTAGACAGCATGTCCTAGCAAGCCAGAATTCGGCAGCGTC [Y12]
binds more weakly: all assays above
